Results are given in words; binding and its absence hold for the method and conditions named. In cells and extracts the contact can be indirect. Some entries that bind do so weakly or less than the wild type.
Target: HA-tagged PER1, O35973
Assay: co-IP; B6F10 cells co-transfected with HA-PER1 and PPAR-γ2; lysis in 10 mM Tris-HCl pH 8, 420 mM NaCl, 1 mM EDTA, 0.5% NP-40; anti-HA antibody overnight at 4 °C, Protein A-Sepharose 4B; blot for PPAR-γ2; also with GW9662 (10 μM) or troglitazone (10 μM) added 3 h before harvest (association not significantly altered)
Conditions: remark: other sources report otherwise

B1: PPAR-γ2, P37238-1 1-505 (protein)
chain: MGETLGDSPVDPEHGAFADALPMSTSQEITMVDTEMPFWPTNFGISSVDLSVMEDHSHSFDIKPFTTVDFSSISAPHYEDIPFTRADPMVADYKYDLKLQEYQSAIKVEPASPPYYSEKTQLYNRPHEEPSNSLMAIECRVCGDKASGFHYGVHACEGCKGFFRRTIRLKLIYDRCDLNCRIHKKSRNKCQYCRFQKCLAVGMSHNAIRFGRMPQAEKEKLLAEISSDIDQLNPESADLRALAKHLYDSYIKSFPLTKAKARAILTGKTTDKSPFVIYDMNSLMMGEDKIKFKHITPLQEQSKEVAIRIFQGCQFRSVEAVQEITEYAKNIPGFINLDLNDQVTLLKYGVHEIIYTMLASLMNKDGVLISEGQGFMTREFLKNLRKPFGDFMEPKFEFAVKFNALELDDSDLAIFIAVIILSGDRPGLLNVKPIEDIQDNLLQALELQLKLNHPESSQLFAKVLQKMTDLRQIVTEHVQLLHVIKKTETDMSLHPLLQEIYKDLY
- binding: binds

From publication PMC4855679
